# Data: publication PMC12841798
# Numbering of substitutions follows the chain as printed. In names and notes the source's numbering stands. Results are given in words; binding and its absence hold for the method and conditions named. Binding seen in cells or lysates may run through a third protein. These calls come from enrichment with a bait or labelling near it, and not all partners need be listed. A no says only that the protein was not detected with the bait. Tags and fused reporters may be left off the sequences shown.
# B1: αB-crystallin (CryAB), endogenous in neonatal rat ventricular cardiomyocytes (protein, UniProt P23928 1-175)
# chain: MDIAIHHPWIRRPFFPFHSPSRLFDQFFGEHLLESDLFSTATSLSPFYLRPPSFLRAPSWIDTGLSEMRMEKDRFSVNLDVKHFSPEELKVKVLGDVIEVHGKHEERQDEHGFISREFHRKYRIPADVDPLTITSSLSSDGVLTVNGPRKQASGPERTIPITREEKPAVTAAPKK
# B2: CryAB^WT-tGFP (protein, UniProt P02511 1-175)
# chain: B1 chain with S39P, A41S, I61F, M70L, A152V
# B3: CryAB^R120G-tGFP (protein, UniProt P02511 1-175)
# chain: B1 chain with S39P, A41S, I61F, M70L, R120G, A152V
# B4: PFKL (protein, UniProt P30835 1-780)
# chain: MATVDLEKLRMSGAGKAIGVLTSGGDAQGMNAAVRAVTRMGIYVGAKVFLIYEGYEGLVEGGENIKPANWLSVSNIIQLGGTIIGSARCKAFTTREGRLAAAYNLLQHGITNLCVIGGDGSLTGANIFRNEWGSLLEELVKEGKISESTAQNYAHLSIAGLVGSIDNDFCGTDMTIGTDSALHRIMEVIDAITTTAQSHQRTFVLEVMGRHCGYLALVSALASGADWLFIPEAPPEDGWENFMCERLGETRSRGSRLNIIIIAEGAIDRHGKPISSSYVKDLVVQRLGFDTRVTVLGHVQRGGTPSAFDRVLSSKMGMEAVMALLEATPDTPACVVSLSGNQSVRLPLMECVQVTKDVQKAMDEKRFDEAIQLRGRSFENNWKIYKLLAHQKVSKEKSNFSLAILNVGAPAAGMNAAVRSAVRTGISEGHTVYVVHDGFEGLAKGQVQEVGWHDVAGWLGRGGSMLGTKRTLPKPHLEAIVENLRTYNIHALLVIGGFEAYEGVLQLVEARGRYEELCIVMCVIPATISNNVPGTDFSLGSDTAVNAAMESCDRIKQSASGTKRRVFIVETMGGYCGYLATVTGIAVGADAAYVFEDPFNIHDLKANVEHMTEKMKTDIQRGLVLRNEKCHEHYTTEFLYNLYSSEGRGVFDCRTNVLGHLQQGGAPTPFDRNYGTKLGVKAMLWMSEKLRDVYRKGRVFANAPDSACVIGLRKKVVAFSSVTELKKETDFEHRMPREQWWLNLRLMLKMLAHYRISMADYVSGELEHVTRRTLSIDKGF
# B5: UQCRQ (protein, UniProt Q7TQ16 1-82)
# chain: MGREFGNLTRIRHVISYSLSPFEQRAFPHYFSKGIPNVLRRTRERILRVAPPFVLFYLIYTWGNQEFAQSKRKNPAKYENDK
# B6: YWHAG (protein, UniProt P61983 1-247)
# chain: MVDREQLVQKARLAEQAERYDDMAAAMKNVTELNEPLSNEERNLLSVAYKNVVGARRSSWRVISSIEQKTSADGNEKKIEMVRAYREKIEKELEAVCQDVLSLLDNYLIKNCSETQYESKVFYLKMKGDYYRYLAEVATGEKRATVVESSEKAYSEAHEISKEHMQPTHPIRLGLALNYSVFYYEIQNAPEQACHLAKTAFDDAIAELDTLNEDSYKDSTLIMQLLRDNLTLWTSDQQDDDGGEGNN
# Target: myeloid leukaemia factor 2 (MLF2), endogenous in neonatal rat ventricular cardiomyocytes (rat (endogenous in NRVCM))
# Experiment: affinity purification with mass spectrometry; co-IP of MLF2 from NRVCM lysates (RIPA buffer with 1% SDS, 250 µg protein) with MLF2 antibody (B-6) on Dynabeads Protein G, uncoupled beads as negative control, five washes, LC-MS/MS; four conditions: native cells, lacZ, CryAB^WT-tGFP and CryAB^R120G-tGFP overexpression; n = 4 per condition
row,binding,Binder
1,binds,B1
2,binds,B2
3,no binding,B3
4,binds,B4
5,binds,B5
6,binds,B6
